Laboratory results as given in the supplement of paper PMC10849652.
The list shows a part of the results.

Chains of the proteins cited; added tags and fusions are not shown. Lines headed by an entry give the natural chain unless they say otherwise; changes in a name come on top.
UniProt Q5T5X7: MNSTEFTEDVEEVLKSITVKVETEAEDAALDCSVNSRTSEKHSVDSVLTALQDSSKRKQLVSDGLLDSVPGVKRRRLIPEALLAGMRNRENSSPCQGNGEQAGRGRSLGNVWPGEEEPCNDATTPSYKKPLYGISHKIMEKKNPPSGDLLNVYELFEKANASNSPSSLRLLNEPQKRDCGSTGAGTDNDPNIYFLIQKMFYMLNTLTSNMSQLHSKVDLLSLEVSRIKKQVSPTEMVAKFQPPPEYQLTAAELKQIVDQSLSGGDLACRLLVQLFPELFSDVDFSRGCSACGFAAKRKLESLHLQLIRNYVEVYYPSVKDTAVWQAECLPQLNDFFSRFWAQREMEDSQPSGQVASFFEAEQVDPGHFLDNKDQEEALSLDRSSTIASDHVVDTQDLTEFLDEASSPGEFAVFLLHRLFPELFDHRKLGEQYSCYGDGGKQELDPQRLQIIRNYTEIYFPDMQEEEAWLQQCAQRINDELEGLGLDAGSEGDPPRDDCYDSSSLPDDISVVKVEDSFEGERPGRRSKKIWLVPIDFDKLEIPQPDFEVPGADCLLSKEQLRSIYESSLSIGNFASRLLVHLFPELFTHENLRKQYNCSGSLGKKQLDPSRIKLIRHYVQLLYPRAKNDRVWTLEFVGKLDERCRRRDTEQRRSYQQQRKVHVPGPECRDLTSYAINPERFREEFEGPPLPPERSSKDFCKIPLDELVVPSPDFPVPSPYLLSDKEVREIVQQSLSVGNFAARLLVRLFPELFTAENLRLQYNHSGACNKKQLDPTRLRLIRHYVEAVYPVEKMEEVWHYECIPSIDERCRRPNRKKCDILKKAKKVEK
UniProt Q9NPI1: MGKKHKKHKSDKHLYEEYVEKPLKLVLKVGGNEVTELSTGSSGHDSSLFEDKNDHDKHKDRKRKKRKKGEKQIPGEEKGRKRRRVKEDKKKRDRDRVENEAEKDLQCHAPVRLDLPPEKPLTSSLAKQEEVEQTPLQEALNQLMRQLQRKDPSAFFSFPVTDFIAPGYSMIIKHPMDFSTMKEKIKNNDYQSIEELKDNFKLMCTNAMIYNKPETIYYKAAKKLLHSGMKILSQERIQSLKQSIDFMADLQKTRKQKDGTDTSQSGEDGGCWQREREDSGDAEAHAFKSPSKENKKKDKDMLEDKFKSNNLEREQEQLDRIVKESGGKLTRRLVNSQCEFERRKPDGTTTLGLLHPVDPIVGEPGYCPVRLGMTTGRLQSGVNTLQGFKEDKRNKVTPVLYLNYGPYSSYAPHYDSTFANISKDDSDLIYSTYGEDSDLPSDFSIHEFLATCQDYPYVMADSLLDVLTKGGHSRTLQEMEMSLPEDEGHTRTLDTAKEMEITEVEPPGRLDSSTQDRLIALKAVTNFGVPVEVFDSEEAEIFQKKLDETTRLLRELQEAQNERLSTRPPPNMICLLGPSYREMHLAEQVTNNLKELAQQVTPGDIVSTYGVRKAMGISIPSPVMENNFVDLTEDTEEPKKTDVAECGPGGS
UniProt Q8IWZ6: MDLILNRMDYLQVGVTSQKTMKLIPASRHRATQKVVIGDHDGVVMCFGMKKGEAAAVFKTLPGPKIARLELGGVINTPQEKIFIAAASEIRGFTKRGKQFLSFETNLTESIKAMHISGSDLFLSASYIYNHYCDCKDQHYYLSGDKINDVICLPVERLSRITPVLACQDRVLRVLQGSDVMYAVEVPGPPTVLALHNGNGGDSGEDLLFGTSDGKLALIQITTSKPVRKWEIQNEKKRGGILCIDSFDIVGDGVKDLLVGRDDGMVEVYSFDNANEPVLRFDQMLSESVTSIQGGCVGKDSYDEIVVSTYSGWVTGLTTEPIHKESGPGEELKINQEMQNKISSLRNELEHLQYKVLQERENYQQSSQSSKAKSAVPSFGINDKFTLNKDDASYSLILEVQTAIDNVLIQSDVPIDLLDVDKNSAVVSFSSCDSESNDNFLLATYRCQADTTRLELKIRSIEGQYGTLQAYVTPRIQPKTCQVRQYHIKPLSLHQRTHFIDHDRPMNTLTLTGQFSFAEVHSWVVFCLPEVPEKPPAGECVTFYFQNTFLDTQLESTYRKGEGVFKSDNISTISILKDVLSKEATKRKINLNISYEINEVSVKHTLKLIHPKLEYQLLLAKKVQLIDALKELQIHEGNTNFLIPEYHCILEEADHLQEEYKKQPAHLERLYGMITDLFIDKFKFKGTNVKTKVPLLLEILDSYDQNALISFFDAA
UniProt O43521, whole entry, looked up: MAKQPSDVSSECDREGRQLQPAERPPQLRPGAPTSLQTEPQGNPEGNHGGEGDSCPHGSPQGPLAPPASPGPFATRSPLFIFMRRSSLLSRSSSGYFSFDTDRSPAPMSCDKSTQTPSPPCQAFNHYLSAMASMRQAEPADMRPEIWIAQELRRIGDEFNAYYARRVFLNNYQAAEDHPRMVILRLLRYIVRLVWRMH
UniProt Q9BUT1: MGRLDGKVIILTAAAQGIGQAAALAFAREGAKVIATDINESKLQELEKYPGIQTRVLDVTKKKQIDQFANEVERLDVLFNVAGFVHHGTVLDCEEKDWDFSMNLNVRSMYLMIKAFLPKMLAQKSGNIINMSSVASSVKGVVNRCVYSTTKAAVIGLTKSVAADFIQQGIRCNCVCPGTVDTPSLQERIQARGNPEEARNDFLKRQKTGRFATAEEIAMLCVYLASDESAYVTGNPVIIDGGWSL
UniProt O75363: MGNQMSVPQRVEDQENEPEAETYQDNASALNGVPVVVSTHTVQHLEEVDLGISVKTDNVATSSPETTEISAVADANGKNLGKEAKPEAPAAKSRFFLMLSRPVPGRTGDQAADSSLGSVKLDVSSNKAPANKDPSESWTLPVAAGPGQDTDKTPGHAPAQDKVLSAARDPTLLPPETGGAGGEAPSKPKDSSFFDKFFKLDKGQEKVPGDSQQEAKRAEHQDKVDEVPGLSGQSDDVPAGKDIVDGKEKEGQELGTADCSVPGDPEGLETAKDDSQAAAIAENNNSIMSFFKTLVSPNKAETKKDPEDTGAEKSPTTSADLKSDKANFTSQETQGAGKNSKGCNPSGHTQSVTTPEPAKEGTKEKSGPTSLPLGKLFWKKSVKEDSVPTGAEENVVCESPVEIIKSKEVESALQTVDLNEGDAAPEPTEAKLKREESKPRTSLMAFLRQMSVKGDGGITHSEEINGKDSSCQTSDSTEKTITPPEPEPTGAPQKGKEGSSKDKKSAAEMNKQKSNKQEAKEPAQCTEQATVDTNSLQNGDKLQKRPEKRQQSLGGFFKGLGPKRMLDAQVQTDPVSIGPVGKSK
UniProt Q92934: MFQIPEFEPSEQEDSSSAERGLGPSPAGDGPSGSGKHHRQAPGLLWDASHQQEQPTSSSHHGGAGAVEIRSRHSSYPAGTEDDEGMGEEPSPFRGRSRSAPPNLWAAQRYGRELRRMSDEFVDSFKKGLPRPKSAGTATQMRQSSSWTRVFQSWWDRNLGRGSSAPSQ
UniProt Q9HAW0, whole entry, looked up: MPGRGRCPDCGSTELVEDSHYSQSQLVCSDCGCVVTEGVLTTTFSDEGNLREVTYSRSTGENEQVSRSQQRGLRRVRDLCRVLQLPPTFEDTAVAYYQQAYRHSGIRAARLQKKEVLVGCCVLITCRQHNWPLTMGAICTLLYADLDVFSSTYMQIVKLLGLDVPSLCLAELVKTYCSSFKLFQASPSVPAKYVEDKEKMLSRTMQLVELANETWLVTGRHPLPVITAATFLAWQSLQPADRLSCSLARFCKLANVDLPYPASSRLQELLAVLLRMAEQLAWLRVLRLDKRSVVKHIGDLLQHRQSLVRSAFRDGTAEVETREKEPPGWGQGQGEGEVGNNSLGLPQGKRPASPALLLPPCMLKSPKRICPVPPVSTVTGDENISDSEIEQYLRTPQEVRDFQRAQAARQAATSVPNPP
UniProt O60238, whole entry, looked up: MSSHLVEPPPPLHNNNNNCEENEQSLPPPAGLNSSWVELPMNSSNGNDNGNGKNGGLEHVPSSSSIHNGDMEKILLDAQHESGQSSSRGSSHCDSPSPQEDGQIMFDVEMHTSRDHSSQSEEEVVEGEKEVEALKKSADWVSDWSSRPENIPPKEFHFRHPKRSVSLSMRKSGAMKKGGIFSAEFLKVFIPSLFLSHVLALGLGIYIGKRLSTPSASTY
UniProt O43505: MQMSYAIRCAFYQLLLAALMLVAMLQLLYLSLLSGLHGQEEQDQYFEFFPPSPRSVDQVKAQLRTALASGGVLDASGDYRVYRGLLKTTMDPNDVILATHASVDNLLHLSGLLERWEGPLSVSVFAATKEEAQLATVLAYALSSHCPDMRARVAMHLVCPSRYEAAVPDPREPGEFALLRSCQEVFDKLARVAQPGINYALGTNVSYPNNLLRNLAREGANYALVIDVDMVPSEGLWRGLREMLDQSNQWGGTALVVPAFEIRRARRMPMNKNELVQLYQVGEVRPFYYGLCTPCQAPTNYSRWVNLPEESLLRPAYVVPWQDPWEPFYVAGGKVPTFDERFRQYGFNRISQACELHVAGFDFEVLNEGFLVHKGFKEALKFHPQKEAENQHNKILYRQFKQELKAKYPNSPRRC
UniProt O60513: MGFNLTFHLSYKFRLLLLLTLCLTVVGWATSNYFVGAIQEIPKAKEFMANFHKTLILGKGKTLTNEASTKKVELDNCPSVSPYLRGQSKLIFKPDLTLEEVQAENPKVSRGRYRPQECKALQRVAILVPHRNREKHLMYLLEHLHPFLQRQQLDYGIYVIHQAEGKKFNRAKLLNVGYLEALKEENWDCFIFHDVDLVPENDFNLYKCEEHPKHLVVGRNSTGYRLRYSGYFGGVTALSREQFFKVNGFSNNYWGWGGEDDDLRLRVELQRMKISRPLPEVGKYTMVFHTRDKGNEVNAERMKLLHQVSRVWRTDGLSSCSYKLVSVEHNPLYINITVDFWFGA
UniProt Q9NQY0: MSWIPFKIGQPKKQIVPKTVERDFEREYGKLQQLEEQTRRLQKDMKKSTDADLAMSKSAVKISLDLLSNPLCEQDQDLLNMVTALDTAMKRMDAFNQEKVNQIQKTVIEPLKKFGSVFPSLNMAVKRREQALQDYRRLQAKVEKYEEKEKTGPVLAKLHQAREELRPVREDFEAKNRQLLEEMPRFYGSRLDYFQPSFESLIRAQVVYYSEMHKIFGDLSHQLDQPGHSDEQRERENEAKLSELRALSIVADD
UniProt Q96IK1: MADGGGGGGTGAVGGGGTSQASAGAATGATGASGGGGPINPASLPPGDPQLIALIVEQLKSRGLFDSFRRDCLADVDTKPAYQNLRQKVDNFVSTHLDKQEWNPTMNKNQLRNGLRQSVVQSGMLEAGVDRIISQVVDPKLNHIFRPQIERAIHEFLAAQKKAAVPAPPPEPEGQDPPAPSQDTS
UniProt P13497: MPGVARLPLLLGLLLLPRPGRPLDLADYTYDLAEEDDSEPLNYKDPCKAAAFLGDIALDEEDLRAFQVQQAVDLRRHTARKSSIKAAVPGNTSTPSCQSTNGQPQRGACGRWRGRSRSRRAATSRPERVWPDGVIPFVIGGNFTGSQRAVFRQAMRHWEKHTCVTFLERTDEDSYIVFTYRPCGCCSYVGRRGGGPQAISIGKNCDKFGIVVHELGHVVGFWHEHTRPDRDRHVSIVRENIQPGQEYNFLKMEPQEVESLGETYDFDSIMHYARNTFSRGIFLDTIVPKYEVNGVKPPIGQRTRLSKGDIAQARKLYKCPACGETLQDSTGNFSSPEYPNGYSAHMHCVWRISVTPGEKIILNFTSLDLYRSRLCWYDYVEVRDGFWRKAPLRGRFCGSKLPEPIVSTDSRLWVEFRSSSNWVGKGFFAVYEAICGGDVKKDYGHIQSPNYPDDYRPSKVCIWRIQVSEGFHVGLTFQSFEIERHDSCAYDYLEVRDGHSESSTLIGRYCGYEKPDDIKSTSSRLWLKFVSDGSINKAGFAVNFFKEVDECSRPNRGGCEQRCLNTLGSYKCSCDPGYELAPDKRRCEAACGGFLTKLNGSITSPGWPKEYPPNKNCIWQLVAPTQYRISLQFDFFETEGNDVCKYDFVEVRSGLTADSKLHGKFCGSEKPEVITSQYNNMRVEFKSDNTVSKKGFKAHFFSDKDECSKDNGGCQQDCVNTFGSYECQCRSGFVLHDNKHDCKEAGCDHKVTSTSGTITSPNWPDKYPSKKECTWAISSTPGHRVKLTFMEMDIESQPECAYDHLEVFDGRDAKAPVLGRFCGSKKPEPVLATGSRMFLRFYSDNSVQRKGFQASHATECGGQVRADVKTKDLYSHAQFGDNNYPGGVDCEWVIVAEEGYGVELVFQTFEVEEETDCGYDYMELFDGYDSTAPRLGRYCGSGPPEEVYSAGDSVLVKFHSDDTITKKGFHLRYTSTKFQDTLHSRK
UniProt Q9NWD9: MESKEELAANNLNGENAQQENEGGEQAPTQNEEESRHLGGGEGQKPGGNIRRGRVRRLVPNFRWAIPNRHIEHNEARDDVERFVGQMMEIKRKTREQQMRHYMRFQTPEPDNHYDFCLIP

What was measured:
Experiment in all cases: log2 fold change, soluble protein after heating vs DMSO (PISA); higher = thermal stabilisation; K562 lysate, 10 uM; active = over 0.2 and 3.5 SD of the protein, either way, in both replicates (recomputed)
vemurafenib = compound: CCCS(=O)(=O)Nc1ccc(F)c(C(=O)c2c[nH]c3ncc(-c4ccc(Cl)cc4)cc23)c1F [vemurafenib]
How it was run: (§1)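 Pellets of K562 cells were dounce-homogenised in PBS pH 7.4 with 1 mM MgCl2, and the crude extract was held at 1 mg/mL protein for a 30 min treatment with 10 μM compound. Aliquots were heated for 3 min over 48°C-58°C and pooled before NP-40 was added to 0.5% at 4°C. The supernatant from 21,000xg for 90 min was quantified by TMTpro 16plex LC-MS/MS with channel sums equalised. Values are reported from duplicates as log-two fold change in thermal stability relative to solvent controls.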

barasertib = compound: CCN(CCCOc1ccc2c(Nc3cc(CC(=O)Nc4cccc(F)c4)[nH]n3)ncnc2c1)CCOP(=O)(O)O [barasertib]
How it was run: as §1

[1] = compound: CC[C@@H]1C(=O)N(C)c2cnc(Nc3ccc(C(=O)NC4CCN(C)CC4)cc3OC)nc2N1C1CCCC1
How it was run: as §1

[2] = compound: CCn1cc(-c2ccnc3[nH]c(-c4cccc(CN(C)C)c4)cc23)c(-c2ccc(NC(=O)N(C)C)cc2)n1
How it was run: as §1

[3] = compound: CN1CCC(CNc2ccc3ncc(-c4cccc(OC(F)(F)F)c4)n3n2)CC1
How it was run: as §1

alvocidib = compound: CN1CC[C@H](c2c(O)cc(O)c3c(=O)cc(-c4ccccc4Cl)oc23)[C@H](O)C1 [alvocidib]
How it was run: as §1

[4] = compound: CNC(=O)C1=CC=CC=C1NC2=NC(=NC=C2Cl)NC3=C(C=C(C=C3)N4CCOCC4)OC
How it was run: as §1

defactinib = compound: CNC(=O)c1ccc(Nc2ncc(C(F)(F)F)c(NCc3nccnc3N(C)S(C)(=O)=O)n2)cc1 [defactinib]
How it was run: as §1

encorafenib = compound: COC(=O)N[C@@H](C)CNc1nccc(-c2cn(C(C)C)nc2-c2cc(Cl)cc(NS(C)(=O)=O)c2F)n1 [encorafenib]
How it was run: as §1

[5] = compound: COC(=O)[C@H](CCSC)NC(=O)C1=C(C=C(C=C1)NC[C@H](CS)N)C2=CC=CC=C2
How it was run: as §1

alisertib = compound: COc1cc(Nc2ncc3c(n2)-c2ccc(Cl)cc2C(c2c(F)cccc2OC)=NC3)ccc1C(=O)O [alisertib]
How it was run: as §1

gefitinib = compound: COc1cc2ncnc(Nc3ccc(F)c(Cl)c3)c2cc1OCCCN1CCOCC1 [gefitinib]
How it was run: as §1

[6] = compound: CCCS(=O)(=O)Nc1ccc(F)c(C(=O)c2c[nH]c3ncc(Cl)cc23)c1F
How it was run: as §1

volasertib = compound: CC[C@@H]1C(=O)N(C)c2cnc(Nc3ccc(C(=O)N[C@H]4CC[C@H](N5CCN(CC6CC6)CC5)CC4)cc3OC)nc2N1C(C)C [volasertib]
How it was run: as §1

[7] = compound: CCn1c(C(=O)N(C2CC2)C2CC2)cc2c3c(ncn3C)c(Nc3cc(C)n(C)n3)nc21
How it was run: as §1

saracatinib = compound: CN1CCN(CCOc2cc(OC3CCOCC3)c3c(Nc4c(Cl)ccc5c4OCO5)ncnc3c2)CC1 [saracatinib]
How it was run: as §1

sotrastaurin = compound: CN1CCN(c2nc(C3=C(c4c[nH]c5ccccc45)C(=O)NC3=O)c3ccccc3n2)CC1 [sotrastaurin]
How it was run: as §1

Tubastatin A = compound: CN1CCc2c(c3ccccc3n2Cc2ccc(C(=O)NO)cc2)C1 [Tubastatin A]
How it was run: as §1

[8] = compound: CNc1nc(-c2ccc3c(N)n[nH]c3c2)cc(N2C[C@@H](C(=O)NC3CCCCC3)CC[C@H]2C)n1
How it was run: as §1

[9] = compound: COc1cc2nc(-c3cc(F)ccc3O)nc(N[C@@H]3CNC[C@H]3C(C)(C)O)c2cc1OC
How it was run: as §1

Measured: log2 fold change

BTBD1 (UniProt Q9H0C5)
inactive: vemurafenib -0.061 | barasertib -0.174 | [1] 0.012 | [2] -0.02 | [3] 0.025 | alvocidib -0.104 | [4] -0.024 | defactinib 0.073 | encorafenib 0.107 | [5] -0.011 | alisertib -0.014 | gefitinib 0.081

BEND3 (UniProt Q5T5X7)
inactive: vemurafenib -0.059 | [6] 0.035 | [1] -0.145 | volasertib -0.074 | [7] 0.029 | [2] -0.02 | [3] 0.077 | saracatinib 0.026 | sotrastaurin 0.067 | alvocidib -0.11 | Tubastatin A -0.164 | [4] -0.057 | defactinib 0.015 | [8] -0.233 | encorafenib -0.007 | [5] 0.086 | [9] 0.023

BPNT1 (UniProt A6NF51)
inactive: vemurafenib -0.058 | barasertib 0.056 | [1] -0.049 | [7] -0.052 | saracatinib 0.092 | Tubastatin A -0.084 | [4] 0.109 | defactinib 0.006 | [8] 0.068 | encorafenib 0.245 | [5] 0.009

BCAP31, A0A2R8Y5M6
inactive: vemurafenib -0.062 | [1] 0.155 | [2] 0.049 | [3] -0.179 | alvocidib -0.061 | defactinib -0.204 | encorafenib -0.005 | [5] 0.057

BRD7 isoform 2 (UniProt Q9NPI1)
inactive: [6] 0.004 | barasertib -0.026 | volasertib -0.005 | [7] -0.034 | [2] 0.224 | [3] 0.009 | saracatinib -0.067 | sotrastaurin 0.015 | alvocidib -0.014 | Tubastatin A 0.002 | [4] 0.075 | [8] 0.025 | alisertib -0.065 | [9] 0 | gefitinib -0.108

BBS7 (UniProt Q8IWZ6)
inactive: vemurafenib 0.375 | [1] -0.082 | [7] 0.026 | [2] -0.255 | [3] 0.067 | saracatinib 0.217 | sotrastaurin 0.044 | alvocidib 0.027 | Tubastatin A -0.123 | [4] -0.028 | defactinib -0.212 | [8] -0.042 | encorafenib 0.024 | [5] 0.091 | alisertib 0.123 | gefitinib -0.016

BCL7C (UniProt Q8WUZ0)
inactive: [6] 0.042 | barasertib 0.063 | [1] 0.098 | volasertib 0.021 | [7] 0 | [2] -0.063 | [3] 0.024 | saracatinib 0.041 | sotrastaurin -0.013 | alvocidib -0.029 | Tubastatin A 0.112 | [4] 0.103 | [8] 0.064 | encorafenib 0.132 | [5] 0.128 | [9] 0.087

BIRC6, A0A3B3IUB9
inactive: vemurafenib -0.081 | [6] 0.087 | [1] -0.108 | volasertib -0.004 | [7] 0.047 | [2] 0.07 | [3] 0.069 | saracatinib 0.06 | sotrastaurin -0.13 | alvocidib 0.081 | Tubastatin A -0.037 | [4] -0.028 | defactinib 0.138 | [8] -0.156 | encorafenib 0.115 | [5] -0.023 | [9] -0.186

BCL2L11 (UniProt O43521)
inactive: vemurafenib -0.004 | barasertib 0.447 | [2] 0.04 | [3] -0.095 | sotrastaurin -0.018 | alvocidib -0.018 | defactinib -0.028

BRAF, A0A2R8Y8E0
inactive: vemurafenib 1.34 | [1] -0.287 | defactinib -0.029 | encorafenib 1.3 | [5] 0.076

BDH2 (UniProt Q9BUT1)
inactive: [6] 0.02 | barasertib 0.016 | [1] 0.057 | volasertib -0.039 | [7] -0.087 | saracatinib -0.009 | sotrastaurin -0.04 | Tubastatin A 0.065 | [4] 0 | [8] -0.249 | encorafenib -0.047 | [5] 0.068 | alisertib 0.083 | [9] -0.047 | gefitinib 0.074

BCAS1 isoform 2 (UniProt O75363)
inactive: [6] 0.052 | barasertib 0.022 | [1] -0.04 | volasertib 0.204 | [7] 0.003 | [2] 0.048 | [3] 0.015 | sotrastaurin 0.02 | alvocidib -0.014 | Tubastatin A -0.167 | encorafenib 0.18 | [5] 0.149 | alisertib -0.037 | [9] 0.09 | gefitinib 0.004

BRIP1 (UniProt Q9BX63)
inactive: vemurafenib -0.131 | [6] -0.016 | [1] -0.225 | volasertib 0.031 | [7] -0.066 | [2] -0.013 | [3] 0.024 | saracatinib -0.115 | sotrastaurin 0.059 | alvocidib -0.029 | Tubastatin A -0.028 | [4] 0.03 | defactinib 0.063 | [8] -0.121 | encorafenib 0.02 | [5] 0.046 | alisertib 0.072 | [9] 0.122 | gefitinib -0.16

BAG6 (UniProt F6WML8)
inactive: vemurafenib 0.039 | [1] 0.12 | [7] 0.013 | Tubastatin A -0.077 | [4] -0.203 | defactinib 0.119 | encorafenib -0.136 | [5] 0.018

BAD (UniProt Q92934)
inactive: vemurafenib 0.07 | barasertib -0.009 | [1] -0.089 | [7] -0.005 | [2] -0.065 | [3] 0.041 | saracatinib 0.172 | sotrastaurin -0.046 | alvocidib -0.02 | Tubastatin A 0.029 | [4] 0.05 | defactinib 0.099 | [8] -0.161 | encorafenib 0.022 | [5] 0.024

BRD9 (UniProt Q9H8M2)
inactive: [1] -0.23 | [7] 0.014 | [2] 0.228 | [3] 0.046 | alvocidib 0.207 | Tubastatin A -0.03 | [4] 0.185 | encorafenib 0.199 | [5] 0.058 | alisertib 0.113 | gefitinib -0.028

BHLHE40 (UniProt O14503)
inactive: [7] 0.075 | sotrastaurin 0.101 | Tubastatin A -0.229 | [4] -0.04

BRF2 (UniProt Q9HAW0)
inactive: [1] 0.006 | encorafenib 0.4 | [5] -0.075

BNIP3L (UniProt O60238)
inactive: [1] 0.108 | sotrastaurin 0.051 | encorafenib -0.127 | [5] 0.105

B4GAT1 (UniProt O43505)
inactive: barasertib 0.049 | [7] -0.129 | saracatinib 0.011 | sotrastaurin 0.126 | Tubastatin A -0.234 | [4] -0.028 | [8] 0.04 | alisertib 0.073 | gefitinib 0.28

B4GALT4 (UniProt O60513)
inactive: [2] 0.009 | [3] -0.071 | saracatinib 0.116 | alvocidib 0.055 | [4] 0.312 | [8] -0.094

BIN3 (UniProt Q9NQY0)
inactive: barasertib 0.126 | [7] 0.053 | [2] 0.201 | [3] 0.051 | saracatinib 0.082 | sotrastaurin 0.098 | alvocidib -0.018 | Tubastatin A 0.081 | [4] 0.103 | [8] -0.189

BSCL2 isoform 4 (UniProt Q96G97)
inactive: [6] 0.092 | volasertib 0.019 | [7] 0.021 | [2] -0.07 | [3] 0.061 | sotrastaurin 0.133 | alvocidib -0.015 | Tubastatin A -0.1 | [4] -0.093 | alisertib -0.087 | [9] -0.1 | gefitinib 0.075

BPTF (UniProt F5GXF5)
inactive: [7] -0.02 | Tubastatin A 0.089 | [4] 0.076

Quoted at random: 2 records from the list, in no set order.
B4GAT1 (UniProt O43505)
inactive: barasertib 0.049 | [7] -0.129 | saracatinib 0.011 | sotrastaurin 0.126 | Tubastatin A -0.234 | [4] -0.028 | [8] 0.04 | alisertib 0.073 | gefitinib 0.28

BIN3 (UniProt Q9NQY0)
inactive: barasertib 0.126 | [7] 0.053 | [2] 0.201 | [3] 0.051 | saracatinib 0.082 | sotrastaurin 0.098 | alvocidib -0.018 | Tubastatin A 0.081 | [4] 0.103 | [8] -0.189

Further entries follow:

BOD1 (UniProt Q96IK1)
inactive: [6] -0.313 | volasertib -0.071 | [7] -0.04 | [2] 0.181 | [3] -0.137 | saracatinib -0.401 | sotrastaurin -0.008 | alvocidib 0.035 | Tubastatin A 0.056 | [8] -0.221 | [9] 0.084

BMP1 (UniProt P13497)
inactive: [7] -0.078 | Tubastatin A 0.12

BEX4 (UniProt Q9NWD9)
inactive: [7] 0.124 | saracatinib 0.079 | sotrastaurin -0.064 | Tubastatin A -0.038 | [4] 0.03 | [8] -0.079 | alisertib -0.138 | gefitinib 0.032
